Measured data: PubChem BioAssay AID504784 (Drosophila RNAi Screening Center, 2011)
Aim: 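Search for regulators of lipid droplet storage in oleate-fed fly cells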 (primary screen). Cells: Drosophila Kc167 embryonic cells. Reagent: long dsRNA against Drosophila genes, about 250 ng dsRNA per well. Duration: 4 days. Challenge: cells fed 400 µM oleic acid bound to BSA. Read-out: 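Microscope images give a droplet-to-nucleus area ratio, taken as log and converted to a screen-wide B-score; higher values mean greater lipid storage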. Scale: droplet/nuclear area B-score: higher = more stored lipid (overstorage).
The deposit covers about 17,000 reagents; shown is an unselected part of those with a known target gene and a result. 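Each column is one replicate's B-score; the combined score over replicates was not deposited, so single values may mislead.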 The numbers tell different reagents against one gene apart. A plus sign joins genes that one reagent is predicted to hit.

no.	gene knocked down	reagent no.	droplet/nuclear area B-score, replicate 1	droplet/nuclear area B-score, replicate 2	droplet/nuclear area B-score, replicate 3
1	CG14695	1	0.00634	1.46	
2	CG4743	1	-1.73	1.05	
3	CG14687	1	-0.373	0.371	0.933
4	CtsF (Cathepsin F)	1	0.163	-0.805	
5	CtsF (Cathepsin F)	2	2.31	0.23	
6	CtsF (Cathepsin F)	3	-0.172	0.032	
7	scramb1 (scramblase 1)	1	-0.278	0.795	
8	scramb1 (scramblase 1)	2	-1.87	-1.72	
9	scramb1 (scramblase 1)	3	-2.21	-1.64	
10	COX5BL (Cytochrome c oxidase subunit 5B-like)	1	-0.201	1.41	
11	CG9121	1	0.787	0.977	
12	ato (atonal)	1	1.4	2.43	
13	TfIIEbeta (Transcription factor IIEbeta)	1	-2.3	-0.424	
14	CG9951	1	-0.11	0.0162	-0.0291
15	CG14655	1	0.784	-0.00319	
16	CAH6 (Carbonic anhydrase 6)	1	-0.00556	-0.334	
17	be (ben)	1	0.261	-0.204	0.936
18	be (ben)	2	-0.164	-0.124	
19	be (ben)	3	-0.156	0.00558	
20	CG6023	1	0.529	-0.397	
21	Ir7c (Ionotropic receptor 7c)	1	1.86	0.177	
22	CG1738	1	-0.904	0.602	0.859
23	disco (disconnected)	1	1.97	3.67	
24	nop5	1	1.15	1.75	
25	betaCOP (Coat Protein (coatomer) beta)	1	4.67	4.58	
26	Gyc89Da (Guanylyl cyclase at 89Da)	1	-0.0109	0.814	
27	CG1698	1	0.335	-0.256	
28	prim (primacord)	1	-0.367	-0.938	
29	CG10405	1	-0.762	-0.344	
30	CG13443	1	1.08	0.884	
31	CG8768	1	-0.325	-0.387	
32	CG33282	1	-0.486	0.612	
33	Rab3GAP1 (RAB3 GTPase activating protein subunit 1)	1	4.12	-0.527	
34	Rab3GAP1 (RAB3 GTPase activating protein subunit 1)	2	0.685	0.0347	
35	RabGGTb (Rab geranylgeranyltransferase subunit beta)	1	1.62	-0.25	
36	RpL24-like (Ribosomal protein L24-like)	1	1.08	0.069	
37	dgt2 (dim gamma-tubulin 2)	1	-3.27	0.693	
38	qkr58E-3 (quaking related 58E-3)	1	-0.324	-1.28	
39	CG14632 (retired record)	1	-0.291	1.84	-0.758
40	Lamtor2 + CG30120	1	-1.39	-0.0122	
41	Lamtor2 + CG30120	2	-0.0141	-0.487	
42	Cyp6w1 (Cytochrome P450 6w1)	1	-1.09	-0.518	
43	Mtmr6 (Myotubularin related protein 6)	1	-2.83	-0.0545	
44	Wwox (WW domain containing oxidoreductase)	1	0.396	0.901	-0.869
45	Wwox (WW domain containing oxidoreductase)	2	-0.478	-0.224	
46	wisp (wispy)	1	0.439	-0.0947	1.85
47	wisp (wispy)	2	0.000145	0.867	
48	CG32023	1	-0.0404	-1.05	
49	CG8642	1	1.41	-0.454	
50	CG9483	1	0.882	0.75	
51	msk (moleskin)	1	1.42	0.157	
52	CG34315 + Orc3	1	-0.00687	4.17	
53	Sec10 (Secretory 10)	1	0.224	1.08	
54	comt (comatose)	1	1.43	1.85	2.29
55	TAF1B	1	0.305	-1	
56	CG10280	1	-2.81	-0.771	
57	Alg2 (ALG2, alpha-1,3/1,6-mannosyltransferase)	1	0.224		
58	Cc2d2a (Coiled-coil and C2 domain containing 2A)	1	-0.0273	-0.625	
59	Cc2d2a (Coiled-coil and C2 domain containing 2A)	2	0.363	-0.416	
60	vis + achi	1	0.586	-0.21	
61	ValRS-m (Valyl-tRNA synthetase, mitochondrial)	1	-0.000308	-1.72	
62	mRpL44 (mitochondrial ribosomal protein L44)	1	5.96	-0.0099	
63	CG30158	1	1.1	1.14	
64	CG30158	2	1.13	2.21	
65	CG30158	3	-0.902	-3.61	
66	CG30158	4	-0.304	-2.46	
67	Nplp2 (Neuropeptide-like precursor 2)	1	-0.255	-0.485	
68	Idgf3 (Imaginal disc growth factor 3)	1	0.126	1.97	
69	sna (snail)	1	0.241	-0.286	
70	GstD9 (Glutathione S transferase D9)	1	-0.146	0.421	
71	GABA-B-R1 (metabotropic GABA-B receptor subtype 1)	1	-0.21	-0.0119	
72	Ser8	1	0.496	0.112	
73	mr (morula)	1	0.279	-0.102	
74	mr (morula)	2	0.306	0.109	
75	CG7135	1	-0.236	-3.2	
76	Ir7d (Ionotropic receptor 7d)	1	1.68	0.811	
77	LysD + LysB + LysC (retired record)	1	-0.205	-1.09	
78	CG30491	1	-0.0389	-0.655	
79	Surf1 (Surfeit 1)	1	0.359	1.51	
80	Surf1 (Surfeit 1)	2	-0.162	0.839	
81	lncRNA:CR32690 (long non-coding RNA:CR32690)	1	0.751	-1.09	
82	CG4332	1	-0.993	0.309	1.96
83	tplus3a + tplus3b	1	-0.325	-0.803	
